The whole screen tested about 340,000 compounds, of which about 4,500 (1.3%) were called active. The inconclusive results got no clear call from the source; some entries with a clear call stand among them for comparison. The call rests on the fitted dose curve; in most records, active means well fitted inhibition curve with a large enough effect; inconclusive means small, poorly fitted or top-dose-only effect, or another doubt; inactive means no such curve, though single readings can be large or run the other way. Potencies beside an inconclusive call are fits to weak or partial responses and may not hold up.
Each compound was assayed against DNA polymerase beta (Homo sapiens) (UniProt P06746) (assay: qHTS Assay for Inhibitors of DNA Polymerase Beta). Settings: Pol beta primer extension/strand displacement, fluorescence kinetic; activity change, negative = inhibition: at 114 µM (top of the series).
How it was run: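 Enzyme-only controls used 10 nM Pol beta; buffer lacking enzyme served as negative control. Compound preincubated 15 min, then 50 nM substrate added; 0 and 10 min reads at room temperature.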
On the % scale 0 is the no-effect control and ±100 the full control effect; potency means the concentration at half of the fitted maximal effect.

SMILES | Potency | activity change, negative = inhibition
CC(C)CN1CCCC(N2CCN(c3cccc(Cl)c3)CC2)C1 (stereo not drawn) | inconclusive: 4.47 µM [inhibitor, full curve] | –
COC(=O)c1ccc(COc2ccc(/C=C/C(=O)c3ccc(OC)c(CSCC(=O)O)c3)cc2OC)cc1 | active: 31.6 µM | –
CCCn1c(SCc2nc(-c3cc(OC)ccc3OC)no2)nnc1-c1ccc(Cl)cc1 | – | inactive: 42.9%
COCCN=C1Sc2nc3c(C)cccc3cc2CN1Cc1ccco1 | – | inactive: 14.4%
O=C(NNC1CC(=O)N(c2cccc(Cl)c2)C1=O)c1cccnc1 (stereo not drawn) | inconclusive: 89.1 µM [inhibitor, single point] | –
O=C(COC(=O)c1cc([N+](=O)[O-])ccc1N1CCOCC1)Nc1ncc(Cl)cc1Cl | inconclusive: 39.8 µM [inhibitor, single point] | –
CNc1c(NC(=O)c2cc(OC)cc(OC)c2)c(=O)oc2ccccc12 | – | inactive: 8.17%
O=C(CCc1ccc(O)c(O)c1)NNC(=S)Nc1ccc(Br)cc1Cl | inconclusive: 63.1 µM [inhibitor, partial curve, poor fit] | –
Cc1c(CC(=O)O)c(=O)oc2cc(OCc3ccc(F)cc3Cl)ccc12 | inconclusive: 89.1 µM [inhibitor, single point] | –
Cc1cccc(CNC(=O)c2cccc(NC(=O)N3CCSc4ncccc43)c2)c1 | – | inactive: -13.2%
Cc1ccc2nc(/C(C#N)=C/c3ccc(O)c(O)c3)[nH]c2c1 | inconclusive: 10 µM [inhibitor, partial curve] | –
O=C(CCC(=O)c1cccs1)Nc1ccc(N2CCCCC2)cc1 | inconclusive: 44.7 µM [inhibitor, full curve] | –
CC1CCN(S(=O)(=O)c2ccc3c(c2)oc(=O)n3CC(=O)NC(C)c2ccccc2)CC1 (stereo not drawn) | inconclusive: 0.708 µM [inhibitor, full curve, poor fit] | –
COc1ccc(OC)c(-c2csc(NC(=O)Cn3[nH]c(=O)c4ccccc4c3=O)n2)c1 | inconclusive: 79.4 µM [inhibitor, partial curve, poor fit] | –
CC(=O)Nc1cccc(NC(=O)CSc2nc(C3CC3)nc3ccccc23)c1 | inconclusive: 50.1 µM [inhibitor, partial curve] | –
O=C(N/N=C/c1c[nH]c2ccccc12)c1cc(-c2ccccc2)n[nH]1 | inconclusive: 17.8 µM [inhibitor, full curve] | –
CCCNC(=O)CCn1nc(-c2ccccc2)c2ccccc2c1=O | inconclusive: 89.1 µM [inhibitor, single point] | –
CCOC(=O)C1CCN(C(=O)CN(C)S(=O)(=O)c2cc(C)ccc2OC)CC1 | inconclusive: 0.891 µM [inhibitor, full curve, poor fit] | –
Cc1nc2ccccc2nc1N/N=C/c1ccc(O)cc1O | inconclusive: 89.1 µM [inhibitor, single point] | –
COc1ccc2c(c1)c1c(c(=O)n(-c3ccc(C)cc3)c(=O)n1CC(=O)N1CCCC1)n2C | inconclusive: 89.1 µM [inhibitor, single point] | –
Cc1ccc(NC(=O)COC(=O)C2CC3C=CC2C3)cc1S(=O)(=O)N1CCCCC1 (stereo not drawn) | inconclusive: 89.1 µM [inhibitor, single point] | –
O=C1Nc2ccccc2C(O)(C(=O)NCc2ccco2)N1c1ccc(Cl)c(Cl)c1 (stereo not drawn) | inconclusive: 3.98 µM [inhibitor, full curve] | –

13 compounds from above, arranged by length of the SMILES, rising.
SMILES | Potency | activity change, negative = inhibition
Cc1nc2ccccc2nc1N/N=C/c1ccc(O)cc1O | inconclusive: 89.1 µM [inhibitor, single point] | –
COCCN=C1Sc2nc3c(C)cccc3cc2CN1Cc1ccco1 | – | inactive: 14.4%
O=C(CCC(=O)c1cccs1)Nc1ccc(N2CCCCC2)cc1 | inconclusive: 44.7 µM [inhibitor, full curve] | –
O=C(NNC1CC(=O)N(c2cccc(Cl)c2)C1=O)c1cccnc1 (stereo not drawn) | inconclusive: 89.1 µM [inhibitor, single point] | –
Cc1ccc2nc(/C(C#N)=C/c3ccc(O)c(O)c3)[nH]c2c1 | inconclusive: 10 µM [inhibitor, partial curve] | –
CNc1c(NC(=O)c2cc(OC)cc(OC)c2)c(=O)oc2ccccc12 | – | inactive: 8.17%
Cc1c(CC(=O)O)c(=O)oc2cc(OCc3ccc(F)cc3Cl)ccc12 | inconclusive: 89.1 µM [inhibitor, single point] | –
O=C1Nc2ccccc2C(O)(C(=O)NCc2ccco2)N1c1ccc(Cl)c(Cl)c1 (stereo not drawn) | inconclusive: 3.98 µM [inhibitor, full curve] | –
COc1ccc(OC)c(-c2csc(NC(=O)Cn3[nH]c(=O)c4ccccc4c3=O)n2)c1 | inconclusive: 79.4 µM [inhibitor, partial curve, poor fit] | –
O=C(COC(=O)c1cc([N+](=O)[O-])ccc1N1CCOCC1)Nc1ncc(Cl)cc1Cl | inconclusive: 39.8 µM [inhibitor, single point] | –
CC1CCN(S(=O)(=O)c2ccc3c(c2)oc(=O)n3CC(=O)NC(C)c2ccccc2)CC1 (stereo not drawn) | inconclusive: 0.708 µM [inhibitor, full curve, poor fit] | –
COc1ccc2c(c1)c1c(c(=O)n(-c3ccc(C)cc3)c(=O)n1CC(=O)N1CCCC1)n2C | inconclusive: 89.1 µM [inhibitor, single point] | –
COC(=O)c1ccc(COc2ccc(/C=C/C(=O)c3ccc(OC)c(CSCC(=O)O)c3)cc2OC)cc1 | active: 31.6 µM | –

Later entries:

SMILES | Potency | activity change, negative = inhibition
Nc1c(C(=O)O)cnc2c(-c3ccc(Cl)cc3)cnn12 | – | inactive: 2.61%
CN(C)/C=C/c1oc2ccc(O)cc2c1[N+](=O)[O-] | inconclusive: 28.2 µM [inhibitor, full curve] | –
CCc1cccc(NC(=O)c2cnn(-c3ccccc3)c2C)c1 | inconclusive: 89.1 µM [inhibitor, single point] | –
CCOC(=O)c1c(NC(=O)Nc2ccc(C)cc2)sc2c1CCN(C)C2 | inconclusive: 8.91 µM [inhibitor, full curve] | –
CCOc1nc(NCCO)nc(Nc2cc(Cl)ccc2OC)n1 | inconclusive: 0.282 µM [inhibitor, full curve, poor fit] | –
NNc1nc2sc3c(c2c(=O)[nH]1)CCc1ccccc1-3 | – | inactive: -23.2%
CC1CCC(NC(=O)c2ccc3c(c2)N(Cc2ccccc2F)C(=O)c2ccccc2S3=O)CC1 (stereo not drawn) | – | inactive: -0.792%
Cc1ccccc1Nc1nc(N)nc(CSc2nc3ccccc3c(=O)n2CCCO)n1 | – | inactive: 12%
COc1ccc(S(=O)(=O)/C(C#N)=C/Nc2ccccc2F)cc1 | inconclusive: 39.8 µM [inhibitor, single point] | –
CCc1ccc(NS(=O)(=O)c2ccc3[nH]cc(C(=O)NCCc4cccc(C)c4)c(=O)c3c2)cc1 | inconclusive: 0.316 µM [inhibitor, full curve, poor fit] | –
COCCN(C(=S)Nc1cccc(OC)c1)C1CCN(C(C)C)CC1 | – | inactive: -2.58%
CN(C)C(=O)c1cc(C(=O)c2ccccc2C(F)(F)F)c[nH]1 | – | inactive: 32.2%
O=C1NC(c2ccccc2)=N/C1=C/c1ccco1 | active: 28.2 µM | –
CSCCC(NC(=O)c1ccccc1Cl)C(=O)NC1CCN(Cc2ccccc2)CC1 (stereo not drawn) | – | inactive: 20.9%
Cc1ccc(-n2c(C)cc(/C=C3\SC(=O)NC3=O)c2C)cc1 | inconclusive: 17.8 µM [inhibitor, partial curve] | –
CN(/N=C/c1cccnc1)c1cnn(-c2ccc(F)c(Cl)c2)c(=O)c1Cl | inconclusive: 7.94 µM [inhibitor, full curve] | –
COc1cc(C2Sc3ccccc3NC3=C2C(=O)OC3)cc(OC)c1OC (stereo not drawn) | inconclusive: 63.1 µM [inhibitor, single point] | –
CCOCCCNCc1c(Cl)cccc1Cl | inconclusive: 89.1 µM [inhibitor, single point] | –
COc1ccc(C2Nc3ccccc3C(=O)N2c2ccccc2)cc1CSc1ccccn1 (stereo not drawn) | inconclusive: 89.1 µM [inhibitor, single point] | –
O=C1c2ccccc2C(=O)N1CCc1csc(NNc2nc(CCN3C(=O)c4ccccc4C3=O)cs2)n1 | active: 25.1 µM | –
CC(C)(C)c1ccc(S(=O)(=O)Nc2cccnc2)cc1 | inconclusive: 28.2 µM [inhibitor, single point] | –

From PubChem BioAssay AID485314 (National Center for Advancing Translational Sciences (NCATS), 2010)
